Results from PubChem BioAssay AID652054 (National Center for Advancing Translational Sciences (NCATS), 2013).
Screen size: about 360,000 compounds; about 9,100 (2.5%) were called active. The shares of active, inactive and inconclusive entries below differ from those in the screen. Rule as the data show it: active = max response below about -50%; inconclusive = no clear call, values can overlap the other calls; inactive = above that.

Sequences of proteins named here, by UniProt entry; tags and fusion partners are left off.
UniProt P35462, whole entry, looked up: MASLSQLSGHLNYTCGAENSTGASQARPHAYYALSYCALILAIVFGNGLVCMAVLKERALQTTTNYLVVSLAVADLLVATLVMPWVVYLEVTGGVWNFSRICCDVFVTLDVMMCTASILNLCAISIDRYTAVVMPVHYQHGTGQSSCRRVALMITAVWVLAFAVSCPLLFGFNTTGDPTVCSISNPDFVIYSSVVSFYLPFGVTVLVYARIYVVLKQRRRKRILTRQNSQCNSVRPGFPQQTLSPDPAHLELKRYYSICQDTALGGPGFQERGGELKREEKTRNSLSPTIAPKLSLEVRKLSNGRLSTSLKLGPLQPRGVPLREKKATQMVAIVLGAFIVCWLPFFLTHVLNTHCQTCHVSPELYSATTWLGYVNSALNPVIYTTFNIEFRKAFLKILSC

Each molecule was assayed against D(3) dopamine receptor (Homo sapiens) (UniProt P35462) (assay: qHTS of D3 Dopamine Receptor Antagonist: qHTS). Details: D3R cells, DiscoveRx beta-arrestin luminescence, antagonist mode; active compounds read low.
Summary of the method: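 Cells plated overnight at 1500 cells/well, then exposed to library compounds with dopamine controls for 90 minutes at 37 degrees C. DiscoveRx reagent added for 30–60 minutes at room temperature; luminescence read, quantitative HTS format.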
% is scaled to controls: 0 for no effect and ±100 for the full control effect.

| SMILES | max response, negative = inhibition |
| --- | --- |
| N/C(CCS(=O)(=O)c1ccc(Cl)cc1)=N\OC(=O)c1ccc(Cl)cc1 | inactive: -9.68% |
| CCOC(=O)CN1C(=O)CSc2ccc(S(=O)(=O)N3CCCC3)cc21 | inactive: -15.4% |
| Cc1cc(Cl)c(OCCOCCN2CCCC(C)C2)c(Br)c1 (stereo not drawn) | inconclusive: -44.8% |
| CC(C)(C)C1CCC(=O)N2CCC[C@]2(c2ccccc2)C1 (stereo partly drawn) | inactive: 0% |
| O=C(CCN1C(=O)C2C3C=CC(C3)C2C1=O)N1CC(=O)N(CCc2ccccc2)C(=O)C1 (stereo not drawn) | inconclusive: -48.4% |
| Cc1nc2ccccc2n1CC(=O)NCc1ccccc1 | active: -50.2% |
| CSc1nc(NCCCO)c2c3c(sc2n1)CN(C)CC3 | inconclusive: -35.7% |
| Fc1ccc(-c2cc3nc4c(c(N5CCOCC5)n3n2)CCCC4)cc1 | inactive: 45.7% |
| Cn1c(=O)[nH]c(=O)c2c1nc(N/N=C/c1cccnc1)n2Cc1ccc(Cl)cc1 | inconclusive: -36.3% |
| CCc1nc2c(OCCOc3ccccc3)cccn2c1N(C)C(=O)c1cccs1 | inactive: -19.8% |
| O=[N+]([O-])c1ccc(N2CCN(CCOc3nonc3-c3ccccc3)CC2)c(Cl)c1 | inconclusive: -32.7% |
| COC(=O)C(NS(=O)(=O)c1ccc(NC(C)=O)cc1)C(C)C (stereo not drawn) | active: -73.9% |
| Cc1oc2cc3oc(=O)c(CCC(=O)N(C)CC(=O)O)c(C)c3cc2c1C | active: -66.6% |
| O=[N+]([O-])c1cccc(S(=O)(=O)Nc2cccc(-c3ccc(N4CCCC4)nn3)c2)c1 | inconclusive: -32.9% |
| N#Cc1c(NC(=O)COC(=O)C2CC3C=CC2C3)oc(-c2ccccc2)c1-c1ccccc1 (stereo not drawn) | inconclusive: -34.6% |
| CCCC(C(=O)OCC)P(=O)(c1ccccc1)c1ccccc1 (stereo not drawn) | inconclusive: -31.9% |
| Cc1c(C(=O)NCCN2CCOCC2)oc2ccccc12 | inconclusive: -37.6% |
| CC1OC(Nc2cccc3ccccc23)C(O)C(O)C1O (stereo not drawn) | inconclusive: -34.9% |
| COc1cnc(-c2ccccn2)nc1N(C)C | inconclusive: -43.1% |
| O=C(C1CCN(S(=O)(=O)c2cnc[nH]2)CC1)N1CCn2c1nc1ccccc12 | active: -118% |
| CC1CCCCC1NC(=O)CCC(=O)N1CCOc2ccc(Cl)cc21 (stereo not drawn) | active: -53.4% |
| O=C(O)c1ccccc1C(=O)Nc1ccc(Oc2cccc3ccccc23)cc1 | inactive: -1.02% |

| SMILES | max response, negative = inhibition |
| --- | --- |
| COc1cccc2sc(N(CCN(C)C)C(=O)c3ccc4c(c3)CCCC4)nc12 | inconclusive: -46.1% |
| Cn1c(-c2ccccc2O)cc2ccccc21 | inconclusive: -46.7% |
| CCN(CC)CCNC(=O)Cn1nc(Cc2cccnc2)c2ccccc2c1=O | inactive: 0.0709% |
| O=C(NCc1cccc(C(F)(F)F)c1)c1ccc2sc(COCCO)nc2c1 | inconclusive: -39.1% |
| CC(=O)c1ccc(OCC(=O)Nc2cccc(S(=O)(=O)N3CCCC3)c2)cc1 | inconclusive: -49.7% |
| COc1ccc(OC)c(NC(=O)CCN2CCN(c3ccccc3)CC2)c1 | active: -52.6% |
| O=C(O)c1ccc(-n2c(-c3ccc(Br)cc3)n[nH]c2=S)cc1 | active: -88.9% |
| O=C(C1CCCN(Cc2ccncc2)C1)N1CCc2ccccc2C1 (stereo not drawn) | active: -71.6% |
| Cc1cccc(Sc2c([N+](=O)[O-])ncn2C)c1 | inconclusive: -44.1% |
| CCCCSc1nc(C)[nH]c1[N+](=O)[O-] | inconclusive: -31.7% |
| CN1CCN(C2=Nc3ccccc3Oc3ccc(Cl)cc32)CC1 | active: -110% |
| COC1=CC(=O)C(OC)=C(OC)C1=O | inconclusive: -36.3% |
| O=C(Nc1ccc(F)cc1F)c1ccc(COc2c(F)c(F)cc(F)c2F)o1 | inconclusive: -39.8% |
| O=C1Nc2ccccc2NC(c2ccc3c(c2)OCO3)=C1N(Cc1ccc(F)cc1)C(=O)c1ccco1 | inconclusive: -34.7% |
| CCNCc1nc2cc(Cl)ccc2c(=O)[nH]1 | inconclusive: -32.7% |
| CCOC(=O)N1C(=O)[C@@](CC)(c2ccccc2)N1C(=O)OCC | inconclusive: -30.2% |
| CCOC(=O)C1=C(O)c2ccccc2C(=O)/C1=C\c1ccc(CC)cc1 | active: -69.9% |
| O=C(CC1C(=O)NCCN1Cc1c(F)cccc1Cl)NCCC1=CCCCC1 (stereo not drawn) | inactive: -19.9% |
| C=C[C@@H]1c2c(F)cccc2N(S(=O)(=O)c2ccc(C)cc2)[C@H](c2ccc(OC(C)=O)cc2)C1(C#N)C#N | inconclusive: -35.1% |
| O=C(O)c1ccc(NCc2cccnc2)cc1 | inactive: -10.8% |
| Cc1cc(C)cc(N(CC(=O)N/N=C/c2ccncc2)S(=O)(=O)c2ccccc2)c1 | inactive: -5.35% |
| OC(CSc1ccccc1)CN1CCN(c2cccc(Cl)c2)CC1 (stereo not drawn) | active: -85.1% |

| SMILES | max response, negative = inhibition |
| --- | --- |
| CC1CCCN(CCCNS(=O)(=O)c2cc(Br)cc3c2N(C(=O)C2CC2)CC3)C1 (stereo not drawn) | inactive: 6.41% |
| CCC(C)(C(=O)NC1CCCCC1)N(Cc1ccco1)C(=O)c1ccc2c(c1)OCO2 (stereo not drawn) | inconclusive: -41.6% |
| Cc1ccc2nc3n(c(=O)c2c1)-c1ncccc1C(=O)NC3Cc1ccccc1 (stereo not drawn) | inactive: -16.6% |
| COc1ccccc1N(C(=O)CNS(=O)(=O)c1ccccc1)C(C(=O)NCc1ccco1)C(C)C (stereo not drawn) | inconclusive: -30.7% |
| O=C(NC1CCN(Cc2ccccc2)CC1)c1cccc(S(=O)(=O)Nc2cc(C(F)(F)F)ccc2Cl)c1 | inconclusive: -47.9% |
| COCCNC(=O)C1(C)CCCN(Cc2csc(-c3ccc(Cl)cc3)n2)C1 (stereo not drawn) | inactive: 0% |
| CCN1CCN(c2nc(Nc3ccccc3F)nc(N)c2[N+](=O)[O-])CC1 | active: -62.9% |
| O=C(Nc1c(-c2ccc(Cl)cc2)[nH][nH]c1=O)c1ccccn1 | inconclusive: -38.9% |
| CCc1ccccc1OC[C@@H](O)CN[C@H]1CCCc2ccccc21 | active: -53% |
| O=C1C(NS(=O)(=O)c2ccccc2)=C(N2CCN(c3ccc(F)cc3)CC2)C(=O)c2ccccc21 | inconclusive: -42.1% |
| CC1CCC(N2CCN(S(C)(=O)=O)CC2)CC1 (stereo not drawn) | inconclusive: -35.5% |
| COc1ccc(Cc2c(-c3ccco3)nc3c(C)cc(Br)cn23)c(C)c1 | inactive: 18.6% |
| Cc1ccc(Sc2ccc(NC(=O)CCl)cc2)cc1C | inactive: -10.5% |
| Cn1c(SCC(=O)Nc2cc(Cl)cc(Cl)c2)nnc1-c1ccc2nonc2c1 | inactive: -19.5% |
| O=c1[nH]c2cc3c(cc2cc1CN(Cc1cccs1)Cc1nnnn1Cc1ccco1)OCCO3 | inconclusive: -36% |
| CC(=O)CCc1ccc(OCCCCN2CCC(Cc3ccccc3)CC2)cc1 | inconclusive: -38.9% |
| O=c1cc(CN2CCN(CCO)CC2)c2cc3c(cc2o1)CCC3 | inconclusive: -31.9% |
| CC=CCn1c(SCCCc2ccccc2)nc2c1c(=O)[nH]c(=O)n2C | inactive: 41.3% |
| O=C1C2C(C(=O)N1/N=C/c1cc([N+](=O)[O-])c(O)cc1O)C1C=CC2C12CC2 (stereo not drawn) | inconclusive: -33.3% |
| CSc1ccccc1NC(=O)COC(=O)c1ccc(-n2nc(C)cc2C)cc1 | inactive: -0.57% |
| Clc1ccc(C2=Nn3c(nnc3-c3cccnc3)SC2)s1 | inconclusive: -36.2% |
| O=C(CCl)N1c2ccccc2Sc2ccc3ccccc3c21 | inconclusive: -32% |

Arranged by molar mass (falling): three of the compounds above.

| SMILES | max response, negative = inhibition |
| --- | --- |
| O=C1C(NS(=O)(=O)c2ccccc2)=C(N2CCN(c3ccc(F)cc3)CC2)C(=O)c2ccccc21 | inconclusive: -42.1% |
| O=C(Nc1c(-c2ccc(Cl)cc2)[nH][nH]c1=O)c1ccccn1 | inconclusive: -38.9% |
| CC1CCC(N2CCN(S(C)(=O)=O)CC2)CC1 (stereo not drawn) | inconclusive: -35.5% |

In another format: 2 of the compounds above
SMILES,"max response, negative = inhibition"
Clc1ccc(C2=Nn3c(nnc3-c3cccnc3)SC2)s1,inconclusive: -36.2%
O=C(CCl)N1c2ccccc2Sc2ccc3ccccc3c21,inconclusive: -32%

The list goes on.

| SMILES | max response, negative = inhibition |
| --- | --- |
| O=C(CN1C(=O)C2CC=CCC2C1=O)Nc1cc(C(F)(F)F)ccc1N1CCCC1 (stereo not drawn) | inconclusive: -30.8% |
| O=C1N=NC(=O)N1c1ccccc1 | inactive: 21.9% |
| CCC(c1nnnn1Cc1ccccc1)N1CCN(C/C=C/c2ccccc2)CC1 (stereo not drawn) | active: -98.8% |
| O=[N+]([O-])c1cc(C(F)(F)F)ccc1NC1CCN(Cc2ccccc2)C1 (stereo not drawn) | active: -74.4% |
| CN1/C(=C/C=N/n2cnnc2)C(C)(C)c2ccccc21 | inactive: -17.2% |
| O=[N+]([O-])c1ccc(N/N=C/c2c[nH]c3ccccc23)c(S(=O)(=O)Nc2ccc(Cl)cc2)c1 | inconclusive: -35.4% |
| Cc1cc(C)c(S(=O)(=O)c2ccc(C(C)(C)C)cc2)c(Cl)n1 | inactive: -2.75% |
| O=C(CCN1CCN(c2ccccc2)CC1)NNC(=S)Nc1ccccc1Cl | inconclusive: -33.9% |
| COC(=O)c1ccc(CN2CCCC(CO)(Cc3ccc(F)cc3F)C2)cc1 (stereo not drawn) | active: -95.9% |
| CCC(OC(=O)c1nsc(Cl)c1Cl)C(=O)NC(C)(C)CC (stereo not drawn) | inconclusive: -47.7% |
| CC1CCN(CC(=O)NCc2ccccc2)CC1 | inconclusive: -39.5% |
| COc1ccccc1C(=O)OCC(=O)NC(C)CCc1ccccc1 (stereo not drawn) | inconclusive: -36% |
| CC(=O)SC(C)CC(=O)Nc1ccccc1 (stereo not drawn) | inconclusive: -37% |
| CCOc1ccc(C(=O)Nc2cccc(C(=O)O)c2)cc1Cl | inconclusive: -34% |
| CCOC(=O)C1CCCN(S(=O)(=O)Cc2ccccc2)C1 (stereo not drawn) | inactive: -9.29% |
| Cc1ccc(N2C(=O)C(c3c(C)[nH]n(-c4ccccc4)c3=O)(C(F)(F)F)C3=C2CC(C)(C)CC3=O)cc1 (stereo not drawn) | active: -74.9% |
| COc1ccc(NS(=O)(=O)c2cc(OC)ccc2NC(=O)c2cc(C)oc2C)cc1 | inconclusive: -41.8% |
| CN1CCN(c2ccc(C(=O)c3ccc(F)cc3)cc2)CC1 | inconclusive: -40.6% |
| COc1ccc(S(=O)(=O)N(Cc2ccccc2)Cc2nc3ccccc3c(=O)[nH]2)cc1 | inactive: 2.32% |
| CCc1nc2ccc(C(=O)NCCN3CCCC3)cn2c1N(C)Cc1ccc(OC)cc1 | inconclusive: -30.2% |
| CCOc1ccc(-n2c(SCc3cc(=O)oc4cc(C)c(C(C)C)cc34)nnc2-c2cccnc2)cc1 | inconclusive: -36.2% |
| COC(=O)C1=NN(N=O)C2(CC(=O)N(c3cc(C)cc(C)c3)C2=O)C1 (stereo not drawn) | inconclusive: -33.1% |
